# Laboratory results published in the supplement of paper PMC10338343.
# ± gives the standard deviation. This is a selection; strong and weak results do not stand in their true shares. Many of these values have a large error.
# Test system: MILI (PIWIL2) piRISC loaded with L1MC piRNA (26 nt)
# Assay: pre-steady-state target cleavage rate (min^-1); MIWI and MILI are mouse PIWI proteins and EfPiwi is from a freshwater sponge; tags in brackets are library labels; higher = faster piRNA-guided slicing of the target
# Details: guide: L1MC piRNA 5'p-UAACUAAAUACUAUGCAAGCUGUAGG; auxiliary factor: 500 nM mouse GTSF1
# Method: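 Cleave-'n-Seq: a library of target RNAs (target site embedded in constant flanks, ACAGCATTCCGCGTTAGTGATATCCG... 5' flank; DNA-blocked outside the site) at 0.1 nM was incubated with 1 nM active mouse MILI or MIWI piRISC (synthetic 5'-monophosphorylated piRNA guide) with or without 500 nM mouse GTSF1 at 33 °C for 1 min to 16 h. Uncleaved targets were sequenced and normalised to non-target controls, and the pooled three trials were fitted to a burst-and-steady-state model to give the pre-steady-state cleavage rate (min^-1; k3 is constrained to at most 1e-4). Sequence is the target site only; target names encode pairing extent (gX:gY) and contiguous / 1-mismatch / 2-mismatch / bulge geometry. Fits with R² ≤ 0 are excluded.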
row,Sequence,pre-steady-state target cleavage rate
1,UCCUCCUACAGCUUGCUUAGUUUUUAGUUA,0.0513 ± 0.01
2,UCCUGGAUGUGCUUGCAAAGAAUUUAGUUA,0.00234 ± 0.0052
3,UCCUGGAUCAGCUUCCAUAGUAAUUAGUUA,0.00494 ± 0.004
4,UCCUGGAUGUCGAACCACAGUAUUUAGUUA,0.000781 ± 0.0087
5,UCCUGGAUCAGCUUGCAUAGUAUUAUGUAA,0.00562 ± 0.0035
6,UCCUGCUACACCUUGCAUAGUAUUUUGUUA,0.1 ± 0.032
7,UCCUGGAUGUCGAACGUAAGUAUUUACAAA,0.000216 ± 0.024
8,UCCUGGAUCAGCUUGCAUAGUAUUAUAGUUA,0.283 ± 0.022
9,UCCUGGUACAGCUUGCUAAGUAUUUAGUAA,0.036 ± 0.012
10,UCCUGGAUGUCGAACCAUAGUAUUUAGUAUA,0.000795 ± 0.0073
11,UCCUCCUACAGCUUGGUAAGUAUUUAGAAA,0.0543 ± 0.013
12,UCCUGGAUGUCGAAGCAUAGUUUUUUGUUA,0.00147 ± 0.0069
13,UCCUCGAACAGCUUGCAUAGUAUUUUCAAA,0.102 ± 0.021
14,UCCUGGAUGUCGUUGCUUAGUAUUUACUUA,0.00372 ± 0.0041
15,UCCUGGUACACCUUGCAUAGUAUUUACAAA,0.046 ± 0.018
16,UCCUGGAUGUCGUUGCAUAGUAUUUACAUA,0.00165 ± 0.0067

# Same assay, conditions: guide: L1MC piRNA 5'p-UAACUAAAUACUAUGCAAGCUGUAGG; auxiliary factor: none (no GTSF1)
row,Sequence,pre-steady-state target cleavage rate
1,UCCUCCUACAGCUUGCUUAGUUUUUAGUUA,0.00379 ± 0.0023
2,UCCUGGAUGUGCUUGCAAAGAAUUUAGUUA,0.00274 ± 0.0039
3,UCCUGGAUCAGCUUCCAUAGUAAUUAGUUA,0.000665 ± 0.0084
4,UCCUGGUACACGAUGCAUAGUAUUUACAAA,0.00231 ± 0.0042
5,UCCUGGAUGUCGAACCACAGUAUUUAGUUA,0.000138 ± 0.022
6,UCCUGGAUCAGCUUGCAUAGUAUUAUGUAA,0.00136 ± 0.0053
7,UCCUGGAACAGCUUGCAUAGUAUAAAGUUA,0.00233 ± 0.0033
8,UCCUGCUACACCUUGCAUAGUAUUUUGUUA,0.00209 ± 0.0042
9,UCCUGGAUGUCGUUGGAUAGUUUUUAGUUA,0.000284 ± 0.021
10,UCCUGGAUGUGCUUGCAUUGAAUUUAGUUA,0.00202 ± 0.0036
11,UCCUGGAUGUCGAUGCAUAGUAUUUAGGUA,0.00125 ± 0.0046
12,UCCUGGAUGUCGAACGUAAGUAUUUACAAA,0.000131 ± 0.033
13,UCCUGGUACAGCUUGGUUAGUAUUUAGAAA,0.0017 ± 0.0044
14,UCCUCCUACAGCUUGCAUACAAUUUAGUAA,0.00109 ± 0.0052
15,UCCUCCUACAGCUUGCAUAGUAUUUGUUA,0.00164 ± 0.0044
16,UCCUGGUACAGCUUGCUAAGUAUUUAGUAA,0.00141 ± 0.0042
17,UCCUGGAUGUCGAACCAUAGUAUUUAGUAUA,0.00014 ± 0.015
18,UCCUCCUACAGCUUGGUAAGUAUUUAGAAA,0.000992 ± 0.0039
19,UCCUGGAUGUGCUUGCAAACUAUUUAGUUA,0.00286 ± 0.0031
20,UCCUGGAUGUCGAAGCAUAGUUUUUUGUUA,0.000612 ± 0.0076
21,UCCUCGAACAGCUUGCAUAGUAUUUUCAAA,0.00095 ± 0.0068
22,UCCUGGAUGUCGUUGCUUAGUAUUUACUUA,0.00105 ± 0.0067
23,UCCUGGUACACCUUGCAUAGUAUUUACAAA,0.00145 ± 0.0056
24,UCCUGGAUGAGCUUGCAUAGUAUAAAGUAA,0.00143 ± 0.0048
25,UCCUGGAUGUCGUUGCAUAGUAUUUACAUA,0.000617 ± 0.0097
